Experimental findings from patent US5917012 (dated 1999) are described below.

Some peptides are written in HELM: one residue between dots, names in brackets for other building blocks, links after the first $.

A short description of the data set: general procedure: Fmoc solid-phase peptide synthesis; PyBOP, HOBt and DIEA. To be noted: whole synthesis.

“PEPTIDE1{[Mca].G.D.A.E.[pTyr].A.A.[Lys(DNP)].R.[am]}$$$$V2.0” came in with a crude yield of 97%.
